Measured values: publication PMC3409535
No constants are given. Whether binding was seen depends on the method and setting. Binding seen in cells or lysates may run through a third protein. For some of these results: Binding calls can cover weak binding; strength is not graded here.

Legend:
Assay in all cases: co-IP; 293T cells transfected with different amounts of FLAG-tagged codon-optimized integrases; extraction buffer 400 mM NaCl, 0.5% Triton X-100, 50 mM Tris-HCl pH 8, 2 mM MgCl2, 5% glycerol; extracts treated with DNAase and precleared; anti-FLAG IP, FLAG-peptide elution, Western blot for endogenous TNPO3
[1] = molecular target: FLAG-tagged BIV integrase (bovine immunodeficiency virus (BIV))
[2] = molecular target: FLAG-tagged EIAV integrase (equine infectious anemia virus (EIAV))
[3] = molecular target: FLAG-tagged FIV integrase (Feline immunodeficiency virus (FIV))
[4] = molecular target: FLAG-tagged HIV-1 integrase (HIV-1)
[5] = molecular target: FLAG-tagged HIV-2 integrase (HIV-2)
[6] = molecular target: FLAG-tagged MLV integrase (murine leukemia virus (MLV))
[7] = molecular target: FLAG-tagged SIVmac integrase (SIVmac)

B1: TNPO3 (protein, UniProt Q9Y5L0-2 1-923)
chain: MEGAKPTLQLVYQAVQALYHDPDPSGKERASFWLGELQRSVHAWEISDQLLQIRQDVESCYFAAQTMKMKIQTSFYELPTDSHASLRDSLLTHIQNLKDLSPVIVTQLALAIADLALQMPSWKGCVQTLVEKYSNDVTSLPFLLEILTVLPEEVHSRSLRIGANRRTEIIEDLAFYSSTVVSLLMTCVEKAGTDEKMLMKVFRCLGSWFNLGVLDSNFMANNKLLALLFEVLQQDKTSSNLHEAASDCVCSALYAIENVETNLPLAMQLFQGVLTLETAYHMAVAREDLDKVLNYCRIFTELCETFLEKIVCTPGQGLGDLRTLELLLICAGHPQYEVVEISFNFWYRLGEHLYKTNDEVIHGIFKAYIQRLLHALARHCQLEPDHEGVPEETDDFGEFRMRVSDLVKDLIFLIGSMECFAQLYSTLKEGNPPWEVTEAVLFIMAAIAKSVDPENNPTLVEVLEGVVRLPETVHTAVRYTSIELVGEMSEVVDRNPQFLDPVLGYLMKGLCEKPLASAAAKAIHNICSVCRDHMAQHFNGLLEIARSLDSFLLSPEAAVGLLKGTALVLARLPLDKITECLSELCSVQVMALKKLLSQEPSNGISSDPTVFLDRLAVIFRHTNPIVENGQTHPCQKVIQEIWPVLSETLNKHRADNRIVERCCRCLRFAVRCVGKGSAALLQPLVTQMVNVYHVHQHSCFLYLGSILVDEYGMEEGCRQGLLDMLQALCIPTFQLLEQQNGLQNHPDTVDDLFRLATRFIQRSPVTLLRSQVVIPILQWAIASTTLDHRDANCSVMRFLRDLIHTGVANDHEEDFELRKELIGQVMNQLGQQLVSQLLHTCCFCLPPYTLPDVAEVLWEIMQVDRPTFCRWLENSLKGLPKETTVGAVTVTHKQLTDFHKQVTSAEECKQVCWALRDFTRLFR
Q: Which binding [1] does the source give for B1 here?
A: no binding

Q: What about the binding [2] of the same binder?
A: no binding

Q: What about the binding [3] of the same binder?
A: binds weakly

Q: And the binding [4]?
A: binds

Q: And the binding [5]?
A: binds

Q: What about the binding [6] of the same binder?
A: no binding

Q: And the binding [7]?
A: binds
